The supplement of paper PMC12819154, “High-throughput peptide-centric local stability assay extends protein–ligand identification to membrane proteins, tissues and bacteria” (Nature Structural & Molecular Biology, 2025)
Some of the results follow. Small differences around the control level are noise.

Protein sequences, listed by entry. Tags and fused reporters are not part of them. Lines headed by an entry give the natural chain unless they say otherwise; changes in a name come on top.
UniProt Q9UI14, whole entry: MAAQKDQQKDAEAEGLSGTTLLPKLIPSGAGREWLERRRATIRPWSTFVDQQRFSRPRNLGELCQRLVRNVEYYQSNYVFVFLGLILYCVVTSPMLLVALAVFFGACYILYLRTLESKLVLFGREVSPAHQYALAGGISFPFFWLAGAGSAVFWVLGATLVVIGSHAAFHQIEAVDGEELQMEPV
UniProt Q9ULT8: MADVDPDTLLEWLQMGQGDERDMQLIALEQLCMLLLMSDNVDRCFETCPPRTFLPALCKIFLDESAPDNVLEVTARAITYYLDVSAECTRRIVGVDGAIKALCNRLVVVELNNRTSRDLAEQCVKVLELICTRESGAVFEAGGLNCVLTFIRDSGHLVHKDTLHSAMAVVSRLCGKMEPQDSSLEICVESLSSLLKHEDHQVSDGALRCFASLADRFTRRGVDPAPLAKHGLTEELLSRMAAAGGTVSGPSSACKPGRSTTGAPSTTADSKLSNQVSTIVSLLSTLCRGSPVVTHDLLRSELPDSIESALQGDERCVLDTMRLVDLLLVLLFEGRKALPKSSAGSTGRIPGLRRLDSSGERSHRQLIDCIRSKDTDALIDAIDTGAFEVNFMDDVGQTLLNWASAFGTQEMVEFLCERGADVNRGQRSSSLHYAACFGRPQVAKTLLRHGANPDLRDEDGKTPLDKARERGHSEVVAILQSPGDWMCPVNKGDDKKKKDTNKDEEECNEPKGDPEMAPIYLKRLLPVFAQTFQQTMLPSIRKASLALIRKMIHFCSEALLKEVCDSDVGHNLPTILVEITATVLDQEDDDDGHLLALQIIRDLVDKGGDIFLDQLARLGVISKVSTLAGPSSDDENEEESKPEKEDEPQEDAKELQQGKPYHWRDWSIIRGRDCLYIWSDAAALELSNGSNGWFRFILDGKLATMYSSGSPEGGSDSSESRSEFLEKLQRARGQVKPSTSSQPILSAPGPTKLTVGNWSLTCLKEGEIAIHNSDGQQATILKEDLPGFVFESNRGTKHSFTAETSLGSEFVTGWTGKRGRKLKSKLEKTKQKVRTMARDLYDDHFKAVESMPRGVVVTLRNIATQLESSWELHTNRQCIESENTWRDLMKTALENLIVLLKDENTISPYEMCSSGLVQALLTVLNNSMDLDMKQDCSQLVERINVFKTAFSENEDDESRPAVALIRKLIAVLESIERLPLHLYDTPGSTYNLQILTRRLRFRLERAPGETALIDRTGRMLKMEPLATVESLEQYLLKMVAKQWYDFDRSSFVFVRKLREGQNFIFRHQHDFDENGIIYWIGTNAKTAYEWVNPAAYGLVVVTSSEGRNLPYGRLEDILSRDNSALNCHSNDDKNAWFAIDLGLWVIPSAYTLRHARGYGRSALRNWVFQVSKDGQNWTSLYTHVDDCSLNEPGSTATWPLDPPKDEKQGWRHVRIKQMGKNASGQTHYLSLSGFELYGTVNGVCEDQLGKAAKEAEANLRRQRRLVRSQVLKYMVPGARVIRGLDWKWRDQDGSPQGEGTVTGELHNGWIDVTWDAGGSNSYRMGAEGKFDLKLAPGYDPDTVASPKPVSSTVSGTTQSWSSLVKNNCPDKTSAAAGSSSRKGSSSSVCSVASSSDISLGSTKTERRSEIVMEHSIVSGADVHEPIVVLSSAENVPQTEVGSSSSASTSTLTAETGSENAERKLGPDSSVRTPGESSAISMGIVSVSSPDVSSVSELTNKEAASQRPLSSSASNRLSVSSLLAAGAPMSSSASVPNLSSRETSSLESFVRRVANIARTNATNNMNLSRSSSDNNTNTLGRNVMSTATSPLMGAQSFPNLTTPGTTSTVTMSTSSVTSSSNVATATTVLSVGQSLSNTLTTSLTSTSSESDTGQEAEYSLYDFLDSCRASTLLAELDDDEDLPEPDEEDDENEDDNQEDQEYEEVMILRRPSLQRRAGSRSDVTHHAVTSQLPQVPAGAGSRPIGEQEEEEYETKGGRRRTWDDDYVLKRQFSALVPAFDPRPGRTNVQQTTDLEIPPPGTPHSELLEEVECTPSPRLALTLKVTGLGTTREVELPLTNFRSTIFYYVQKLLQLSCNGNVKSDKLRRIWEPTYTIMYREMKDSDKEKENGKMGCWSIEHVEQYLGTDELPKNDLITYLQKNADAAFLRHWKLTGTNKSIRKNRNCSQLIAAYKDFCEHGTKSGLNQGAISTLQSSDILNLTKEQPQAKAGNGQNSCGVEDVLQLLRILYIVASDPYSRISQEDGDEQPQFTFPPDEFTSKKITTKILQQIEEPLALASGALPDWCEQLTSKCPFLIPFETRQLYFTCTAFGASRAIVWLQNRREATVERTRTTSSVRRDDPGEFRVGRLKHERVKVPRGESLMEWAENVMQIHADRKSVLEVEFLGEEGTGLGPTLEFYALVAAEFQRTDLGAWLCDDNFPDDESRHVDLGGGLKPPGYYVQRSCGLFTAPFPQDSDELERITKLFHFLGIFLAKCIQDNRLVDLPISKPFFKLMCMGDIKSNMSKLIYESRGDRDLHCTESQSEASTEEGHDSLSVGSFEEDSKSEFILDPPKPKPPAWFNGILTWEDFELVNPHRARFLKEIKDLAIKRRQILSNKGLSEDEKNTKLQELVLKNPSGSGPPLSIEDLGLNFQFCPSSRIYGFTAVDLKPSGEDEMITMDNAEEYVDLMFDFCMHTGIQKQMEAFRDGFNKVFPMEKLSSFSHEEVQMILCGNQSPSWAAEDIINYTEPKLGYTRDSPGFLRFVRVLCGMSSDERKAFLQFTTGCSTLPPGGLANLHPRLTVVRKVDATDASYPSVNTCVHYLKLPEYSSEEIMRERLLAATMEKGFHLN
UniProt Q9UN79: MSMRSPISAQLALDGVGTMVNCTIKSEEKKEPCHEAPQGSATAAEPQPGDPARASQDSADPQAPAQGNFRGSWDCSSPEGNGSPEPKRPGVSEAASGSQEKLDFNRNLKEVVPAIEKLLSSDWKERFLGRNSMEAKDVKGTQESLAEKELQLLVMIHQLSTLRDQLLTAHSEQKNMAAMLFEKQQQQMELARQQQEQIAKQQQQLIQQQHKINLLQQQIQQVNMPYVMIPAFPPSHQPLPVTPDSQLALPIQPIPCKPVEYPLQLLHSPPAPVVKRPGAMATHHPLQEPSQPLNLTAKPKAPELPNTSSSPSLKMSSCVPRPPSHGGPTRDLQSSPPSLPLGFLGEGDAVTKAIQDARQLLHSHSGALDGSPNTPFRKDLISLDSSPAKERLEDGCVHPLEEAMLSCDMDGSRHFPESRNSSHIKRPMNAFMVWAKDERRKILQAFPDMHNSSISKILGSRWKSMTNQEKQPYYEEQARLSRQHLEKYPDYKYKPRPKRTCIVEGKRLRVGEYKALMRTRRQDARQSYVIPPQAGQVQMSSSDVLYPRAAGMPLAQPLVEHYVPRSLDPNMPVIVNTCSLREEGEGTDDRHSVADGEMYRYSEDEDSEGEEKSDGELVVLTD
UniProt Q9UII2: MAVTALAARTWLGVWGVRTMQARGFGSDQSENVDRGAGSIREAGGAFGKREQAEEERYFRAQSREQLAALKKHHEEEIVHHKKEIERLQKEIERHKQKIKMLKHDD
UniProt Q9UHQ1: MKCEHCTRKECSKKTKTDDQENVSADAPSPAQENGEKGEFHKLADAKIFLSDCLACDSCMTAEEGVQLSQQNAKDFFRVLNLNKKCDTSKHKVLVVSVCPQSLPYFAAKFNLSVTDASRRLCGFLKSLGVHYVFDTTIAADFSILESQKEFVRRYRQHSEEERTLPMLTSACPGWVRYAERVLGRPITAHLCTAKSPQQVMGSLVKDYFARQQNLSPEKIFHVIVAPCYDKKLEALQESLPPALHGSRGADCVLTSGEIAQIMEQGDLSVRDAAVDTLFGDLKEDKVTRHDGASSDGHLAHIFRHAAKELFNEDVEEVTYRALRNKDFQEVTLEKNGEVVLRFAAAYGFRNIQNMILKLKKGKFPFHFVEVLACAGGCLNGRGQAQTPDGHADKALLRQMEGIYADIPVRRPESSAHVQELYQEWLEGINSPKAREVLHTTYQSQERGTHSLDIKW
UniProt Q9UJY4: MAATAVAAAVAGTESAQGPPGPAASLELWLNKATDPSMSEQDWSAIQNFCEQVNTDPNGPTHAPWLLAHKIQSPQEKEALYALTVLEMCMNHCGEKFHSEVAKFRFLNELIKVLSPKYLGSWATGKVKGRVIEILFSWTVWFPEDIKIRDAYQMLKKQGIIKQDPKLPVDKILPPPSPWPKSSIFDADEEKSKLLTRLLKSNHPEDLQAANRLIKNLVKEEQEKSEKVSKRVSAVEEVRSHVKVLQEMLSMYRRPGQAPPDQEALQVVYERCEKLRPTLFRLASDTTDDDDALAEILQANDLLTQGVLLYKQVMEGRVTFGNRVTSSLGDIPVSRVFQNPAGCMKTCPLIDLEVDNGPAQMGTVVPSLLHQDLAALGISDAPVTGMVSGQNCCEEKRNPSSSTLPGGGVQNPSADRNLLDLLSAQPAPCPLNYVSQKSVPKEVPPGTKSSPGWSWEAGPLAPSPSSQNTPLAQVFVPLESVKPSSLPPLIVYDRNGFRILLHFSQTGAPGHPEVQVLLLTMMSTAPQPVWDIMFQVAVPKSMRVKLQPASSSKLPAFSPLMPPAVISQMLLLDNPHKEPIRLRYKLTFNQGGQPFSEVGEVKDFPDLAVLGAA
UniProt Q9UQ03: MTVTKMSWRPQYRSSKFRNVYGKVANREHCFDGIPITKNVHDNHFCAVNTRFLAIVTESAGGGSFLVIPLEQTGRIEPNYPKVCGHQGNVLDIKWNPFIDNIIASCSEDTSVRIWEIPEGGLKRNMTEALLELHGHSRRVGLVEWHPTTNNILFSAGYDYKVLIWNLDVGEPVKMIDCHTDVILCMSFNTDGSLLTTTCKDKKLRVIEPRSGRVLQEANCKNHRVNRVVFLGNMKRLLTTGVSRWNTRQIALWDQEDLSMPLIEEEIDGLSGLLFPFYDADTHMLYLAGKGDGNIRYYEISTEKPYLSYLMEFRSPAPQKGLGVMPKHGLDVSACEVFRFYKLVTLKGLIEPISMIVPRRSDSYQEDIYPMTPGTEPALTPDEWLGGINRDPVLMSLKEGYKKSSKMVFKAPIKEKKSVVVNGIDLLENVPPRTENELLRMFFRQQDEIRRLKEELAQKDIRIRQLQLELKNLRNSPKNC
UniProt Q9UKL6: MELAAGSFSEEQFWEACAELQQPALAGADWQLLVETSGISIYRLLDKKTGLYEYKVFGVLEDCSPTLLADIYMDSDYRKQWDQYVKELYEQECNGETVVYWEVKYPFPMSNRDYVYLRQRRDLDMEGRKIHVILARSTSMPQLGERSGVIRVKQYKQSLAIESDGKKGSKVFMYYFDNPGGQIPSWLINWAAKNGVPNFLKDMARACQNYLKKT
UniProt Q9UHF7: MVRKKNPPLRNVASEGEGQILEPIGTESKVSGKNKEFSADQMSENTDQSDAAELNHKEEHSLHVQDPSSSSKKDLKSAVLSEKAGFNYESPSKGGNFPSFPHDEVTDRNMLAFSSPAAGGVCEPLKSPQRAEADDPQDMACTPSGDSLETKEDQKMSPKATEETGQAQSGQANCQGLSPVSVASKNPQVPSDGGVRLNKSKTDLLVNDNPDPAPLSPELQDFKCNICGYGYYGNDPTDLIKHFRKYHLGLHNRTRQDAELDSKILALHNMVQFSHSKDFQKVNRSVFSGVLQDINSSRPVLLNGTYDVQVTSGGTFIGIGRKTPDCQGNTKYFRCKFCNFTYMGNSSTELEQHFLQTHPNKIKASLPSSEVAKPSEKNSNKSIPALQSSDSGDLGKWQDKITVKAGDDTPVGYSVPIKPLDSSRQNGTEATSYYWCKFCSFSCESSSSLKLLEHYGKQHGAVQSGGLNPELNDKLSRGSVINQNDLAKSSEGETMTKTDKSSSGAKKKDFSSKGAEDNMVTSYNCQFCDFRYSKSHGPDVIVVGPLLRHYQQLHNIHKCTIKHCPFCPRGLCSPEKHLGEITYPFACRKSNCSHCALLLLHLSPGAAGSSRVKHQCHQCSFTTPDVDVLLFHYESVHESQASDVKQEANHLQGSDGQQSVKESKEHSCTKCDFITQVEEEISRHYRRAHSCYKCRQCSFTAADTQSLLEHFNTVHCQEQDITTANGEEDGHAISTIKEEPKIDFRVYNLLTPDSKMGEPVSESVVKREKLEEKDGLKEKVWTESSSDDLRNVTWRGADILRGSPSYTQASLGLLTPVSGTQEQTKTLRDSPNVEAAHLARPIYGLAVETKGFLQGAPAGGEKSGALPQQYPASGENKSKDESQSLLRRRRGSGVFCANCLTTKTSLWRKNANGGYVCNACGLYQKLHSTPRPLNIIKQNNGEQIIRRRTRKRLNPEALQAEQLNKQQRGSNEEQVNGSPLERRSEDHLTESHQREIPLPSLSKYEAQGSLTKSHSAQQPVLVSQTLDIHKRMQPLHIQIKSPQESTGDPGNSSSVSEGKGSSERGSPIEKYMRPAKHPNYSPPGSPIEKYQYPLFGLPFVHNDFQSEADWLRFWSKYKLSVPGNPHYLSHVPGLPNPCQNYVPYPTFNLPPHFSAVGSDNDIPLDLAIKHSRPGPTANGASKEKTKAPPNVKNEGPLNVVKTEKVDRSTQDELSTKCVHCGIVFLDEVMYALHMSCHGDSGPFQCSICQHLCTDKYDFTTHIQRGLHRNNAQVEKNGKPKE

Compound: Cc1nc(Nc2ncc(C(=O)Nc3c(C)cccc3Cl)s2)cc(N2CCN(CCO)CC2)n1 [dasatinib]
Assay: log2 fold change of tryptic peptide abundance, ligand vs vehicle (limited proteolysis) (log2 ratio); higher = more trypsin-susceptible (destabilized)
Settings: ligand concentration: 5 uM; sample: K562 cleared lysate

**Q.** How did the log2 fold change turn out when “AGAP1 (peptide sequence: NNSSGRVPTII, peptide start residue: 847) (UniProt Q9UPQ3)” was run?
**A.** The log2 fold change was -0.344.

**Q.** Which log2 fold change does the source give for “NOB1 (peptide sequence: EVVTEIRDK, peptide start residue: 32) (UniProt Q9ULX3)” here?
**A.** The log2 fold change was -0.167.

**Q.** For “TTF2 (peptide sequence: HSEAADSPR, peptide start residue: 902) (UniProt Q9UNY4)”, which log2 fold change is on record?
**A.** Its log2 fold change is 0.412.

**Q.** How did the log2 fold change turn out when “RABAC1 (peptide sequence: DQQKDAEAEGLSGTTLLPK, peptide start residue: 6) (UniProt Q9UI14)” was run?
**A.** Its log2 fold change is -0.114.

**Q.** With “FKBPL (peptide sequence: VLEREPGHLK, peptide start residue: 278) (UniProt Q9UIM3)” as the target, how does the log2 fold change read?
**A.** Its log2 fold change is 0.427.

**Q.** Which log2 fold change does the source give for “RALY (peptide sequence: KSDVETIFSK, peptide start residue: 35) (UniProt Q9UKM9)” here?
**A.** Its log2 fold change is 0.171.

**Q.** With “SH3BGRL2 (peptide sequence: ESNTVFSFLGLKPR, peptide start residue: 87) (UniProt Q9UJC5)” as the target, how does the log2 fold change read?
**A.** Its log2 fold change is -0.374.

**Q.** With “MRTO4 (peptide sequence: LFGYEMAEFK, peptide start residue: 192) (UniProt Q9UKD2)” as the target, how does the log2 fold change read?
**A.** The log2 fold change was 0.0738.

**Q.** How did the log2 fold change turn out when “HECTD1 (peptide sequence: LVVVELNNR, peptide start residue: 106) (UniProt Q9ULT8)” was run?
**A.** Its log2 fold change is -0.189.

**Q.** Which log2 fold change does the source give for “TMCO1 (peptide sequence: KETITESAGR, peptide start residue: 105) (UniProt Q9UM00)” here?
**A.** The log2 fold change was 0.354.

**Q.** “BSN (peptide sequence: EAVERLQK, peptide start residue: 3471) (UniProt Q9UPA5)” was tested. Which log2 fold change did it give?
**A.** Its log2 fold change is -0.379.

**Q.** “MBD1 (peptide sequence: AVDPGLPSVK, peptide start residue: 529) (UniProt Q9UIS9)” was tested. Which log2 fold change did it give?
**A.** The log2 fold change was 0.382.

**Q.** Which log2 fold change does the source give for “SOX13 (peptide sequence: QQQQLIQQQHK, peptide start residue: 201) (UniProt Q9UN79)” here?
**A.** The log2 fold change was -0.0356.

**Q.** Which log2 fold change does the source give for “CHMP2B (peptide sequence: QLVHLRK, peptide start residue: 64) (UniProt Q9UQN3)” here?
**A.** The log2 fold change was -0.318.

**Q.** With “BAG5 (peptide sequence: KQPSLPLSEDAHPSVAK, peptide start residue: 169) (UniProt Q9UL15)” as the target, how does the log2 fold change read?
**A.** The log2 fold change was 0.228.

**Q.** “NIP7 (peptide sequence: MRPLTEEETR, peptide start residue: 1) (UniProt Q9Y221)” was tested. Which log2 fold change did it give?
**A.** Its log2 fold change is 0.621.

**Q.** With “CHORDC1 (peptide sequence: VEANSTLLNVHIVFEGEK, peptide start residue: 257) (UniProt Q9UHD1)” as the target, how does the log2 fold change read?
**A.** The log2 fold change was 0.178.

**Q.** “UniProt Q9ULK2 (peptide sequence: LHCSDNVDLEEAGK, peptide start residue: 56)” was tested. Which log2 fold change did it give?
**A.** The log2 fold change was 0.757.

**Q.** With “SLC7A11 (peptide sequence: GGYLQGNVNGR, peptide start residue: 13) (UniProt Q9UPY5)” as the target, how does the log2 fold change read?
**A.** The log2 fold change was 0.278.

**Q.** “UniProt Q9UII2 (peptide sequence: HHEEEIVHHK, peptide start residue: 73)” was tested. Which log2 fold change did it give?
**A.** The log2 fold change was 0.131.

**Q.** Which log2 fold change does the source give for “DCTN4 (peptide sequence: RNYMPLAFSDKYGLGTR, peptide start residue: 171) (UniProt Q9UJW0)” here?
**A.** The log2 fold change was -0.358.

**Q.** How did the log2 fold change turn out when “RPUSD1 (peptide sequence: YRFPELADPDTCYGFR, peptide start residue: 46) (UniProt Q9UJJ7)” was run?
**A.** Its log2 fold change is 0.207.

**Q.** How did the log2 fold change turn out when “NARF (peptide sequence: VLGRPITAHLCTAK, peptide start residue: 182) (UniProt Q9UHQ1)” was run?
**A.** Its log2 fold change is -0.944.

**Q.** “AGTPBP1 (peptide sequence: TLQQQPGDQNR, peptide start residue: 508) (UniProt Q9UPW5)” was tested. Which log2 fold change did it give?
**A.** The log2 fold change was -0.258.

**Q.** For “GGA2 (peptide sequence: YLGSWATGK, peptide start residue: 118) (UniProt Q9UJY4)”, which log2 fold change is on record?
**A.** The log2 fold change was -0.269.

**Q.** With “ZNHIT2 (peptide sequence: CNAPYCSLR, peptide start residue: 25) (UniProt Q9UHR6)” as the target, how does the log2 fold change read?
**A.** Its log2 fold change is 0.179.

**Q.** For “ZNF346 (peptide sequence: LWEAVSGAQPVGREEVEHMIQK, peptide start residue: 44) (UniProt Q9UL40)”, which log2 fold change is on record?
**A.** The log2 fold change was -0.42.

**Q.** Which log2 fold change does the source give for “UniProt Q9UM82 (peptide sequence: RQDALRPDVWLLR, peptide start residue: 349)” here?
**A.** Its log2 fold change is -0.0644.

**Q.** With “COG5 (peptide sequence: IGALQGAVDR, peptide start residue: 138) (UniProt Q9UP83)” as the target, how does the log2 fold change read?
**A.** Its log2 fold change is -0.177.

**Q.** How did the log2 fold change turn out when “SAP30BP (peptide sequence: NMSPDEIK, peptide start residue: 111) (UniProt Q9UHR5)” was run?
**A.** Its log2 fold change is 0.135.

**Q.** How did the log2 fold change turn out when “DDX41 (peptide sequence: QTHGILEYYCR, peptide start residue: 272) (UniProt Q9UJV9)” was run?
**A.** The log2 fold change was -0.363.

**Q.** With “BAIAP2 (peptide sequence: FCFLVEK, peptide start residue: 194) (UniProt Q9UQB8)” as the target, how does the log2 fold change read?
**A.** Its log2 fold change is -0.223.

**Q.** With “NEU3 (peptide sequence: AEALSTDHGEGFQR, peptide start residue: 252) (UniProt Q9UQ49)” as the target, how does the log2 fold change read?
**A.** The log2 fold change was 0.0755.

**Q.** “UniProt Q9UQ03 (peptide sequence: IWEIPEGGLK, peptide start residue: 114)” was tested. Which log2 fold change did it give?
**A.** Its log2 fold change is -0.0142.

**Q.** How did the log2 fold change turn out when “PCTP (peptide sequence: QSLAIESDGKK, peptide start residue: 157) (UniProt Q9UKL6)” was run?
**A.** Its log2 fold change is -0.379.

**Q.** How did the log2 fold change turn out when “TRPS1 (peptide sequence: GSVINQNDLAK, peptide start residue: 478) (UniProt Q9UHF7)” was run?
**A.** The log2 fold change was -0.478.

**Q.** Which log2 fold change does the source give for “KIDINS220 (peptide sequence: VSQNSLGEMTK, peptide start residue: 881) (UniProt Q9ULH0)” here?
**A.** Its log2 fold change is 0.352.
